Consider 42 sequences from article PMC7819943, “Rice protein-binding microarrays: a tool to detect cis-acting elements near promoter regions in rice”.

Chains of the proteins cited; added tags and fusions are not shown.
UniProt Q0JBA9, entry or part of it: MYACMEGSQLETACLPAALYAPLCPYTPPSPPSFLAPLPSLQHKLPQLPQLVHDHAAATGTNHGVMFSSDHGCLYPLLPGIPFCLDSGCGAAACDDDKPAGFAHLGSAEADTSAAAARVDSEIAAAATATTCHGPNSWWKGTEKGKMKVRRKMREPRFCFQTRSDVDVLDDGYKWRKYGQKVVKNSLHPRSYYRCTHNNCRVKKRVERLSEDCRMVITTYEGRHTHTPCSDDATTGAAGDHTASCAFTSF

This is one part of the list.

The experiment addresses OsWRKY34 (Oryza sativa, UniProt Q0JBA9 1-250). The experiment can be described thus: protein-binding microarray (RPBM); PBS, 2% BSA, 51.3 ng/ul salmon testes DNA, 50 uM zinc acetate, 200 nM TF, 25 C, 1 h; high values mean tight binding. The conditions noted are these: protein: recombinant; tags: N-terminal polyhistidine and DsRed monomer fusion (pET32a); label: CyDye5-dUTP incorporated in the synthesized complementary strand; 3' TTTTT single-stranded linker to array surface; dsDNA, one strand shown. Put shortly:
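A custom Agilent array was converted to double-stranded form by primer extension with Cy5-dUTP and blocked with 2% BSA. Protein at 200 nM in PBS with 2% BSA, salmon testes DNA and 50 µM zinc acetate was applied for 1 h at 25 °C, followed by washing. The proteins were polyhistidine–DsRed N-terminal fusions of transcription factors, expressed in E. coli BL21-CodonPlus and Ni–NTA-purified. The binding signal is per-feature fluorescence intensity (arbitrary units) from an Axon 4000B scanner.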
With “CCATCGCCTACCGCATTCAGGCACGTGCACGCCGCCCACCCGGAGTCACCTAGTGCAG”, the binding signal was 8290 fluorescence intensity (a.u.).
As to “GTTTGACACCGTTGACTTTTTTAAATATGTTTGACCGTTTCGGAGTCACCTAGTGCAG”, the binding signal is 25000 fluorescence intensity (a.u.).
On to “GCTCACGCCCTTTGCCTTGGCCACACGCCAGCGAATGACCCGGAGTCACCTAGTGCAG”, for which the binding signal is 8290 fluorescence intensity (a.u.).
On to “TGTAGGGAAAATACGAAACTTCCTTACTGTTCAGCTTTTTCGGAGTCACCTAGTGCAG”, for which the binding signal was 8860 fluorescence intensity (a.u.).
Regarding “AATGCTGAGTTTGAATTGCGTCCTTATCCACAATACCAGTCGGAGTCACCTAGTGCAG”, the binding signal was 10500 fluorescence intensity (a.u.).
Turning to “ACTATTTACGTTTCTGGTTACCTAGGGCTTTTGCTACATTCGGAGTCACCTAGTGCAG”, the binding signal was 11700 fluorescence intensity (a.u.).
To “CGACTGCCACACTTTATTGATTTAACCGGTGTAGTTTAAACGGAGTCACCTAGTGCAG” belongs 8060 fluorescence intensity (a.u.).
As for “GGTCACATATCTGATAGTTTTGAGGGGAAAAAAATACTTACGGAGTCACCTAGTGCAG”, the binding signal was 9730 fluorescence intensity (a.u.).
“TGGAGTTATTCGTTTCTCTGTTGCCAAATGTATTGCTTAACGGAGTCACCTAGTGCAG”: the binding signal is 9270 fluorescence intensity (a.u.).
As to “GAGTTATCCAGATTCATTGTACTACGACATGTTACATTTTCGGAGTCACCTAGTGCAG”, the binding signal is 8520 fluorescence intensity (a.u.).
Turning to “GTTGGTTGGCTGTTCCTTGCTTTCATCCAGCTAGCTACTGCGGAGTCACCTAGTGCAG”, the binding signal was 10500 fluorescence intensity (a.u.).
With “AGTAGTATTTTTTTGAGGCAAAGGAACGAAGTAGTATAACCGGAGTCACCTAGTGCAG”, the binding signal was 8790 fluorescence intensity (a.u.).
Consider “ACGCTCGCCGCCGCTTCCTGTACTGTCTTTACCCAATCCTCGGAGTCACCTAGTGCAG”, for which the binding signal was 9010 fluorescence intensity (a.u.).
The value for “CCAGCCGCCGCCAACCGCCACACATGCCTAGCCGCCGCCGCGGAGTCACCTAGTGCAG” was 8220 fluorescence intensity (a.u.).
Take “GACGAGACCGACGCCGTCATCCTCCTTCTCACGCTACCATCGGAGTCACCTAGTGCAG”: the binding signal was 8040 fluorescence intensity (a.u.).
“TGTTTTTCTAATGGTCTCACGAATGGTAATTTCTGTTTTCCGGAGTCACCTAGTGCAG”: the binding signal was 9980 fluorescence intensity (a.u.).
To “TCAAACCGTCCCGCGCCGCCGCGGCCGCTGCAACCCGCGCCGGAGTCACCTAGTGCAG” belongs 8260 fluorescence intensity (a.u.).
With “TATGATTTGTGTTAGTTGACTTCTAATTTCTTGAGAGATACGGAGTCACCTAGTGCAG”, the binding signal is 8610 fluorescence intensity (a.u.).
As to “GTACACACACACTACACACACTACGCTTCTACGCTACACACGGAGTCACCTAGTGCAG”, the binding signal is 8280 fluorescence intensity (a.u.).
With “TAGCTCGTCTACTCCTAGCTCTCTCGTCCAATCCGGCCGGCGGAGTCACCTAGTGCAG”, the binding signal was 8680 fluorescence intensity (a.u.).
Turning to “ATTTTGTTACATCATCATCAACCGATTACCTTTATATCATCGGAGTCACCTAGTGCAG”, the binding signal is 9070 fluorescence intensity (a.u.).
The value for “TTCATGTATCTGTAATTTGATGATGCTGGATTTCTACTATCGGAGTCACCTAGTGCAG” was 8420 fluorescence intensity (a.u.); that for “ACCCGTACCTGTCCAGCCACGTTTGGCGTAACACCTGAACCGGAGTCACCTAGTGCAG” was 10200 fluorescence intensity (a.u.); that for “GATCTCTTGCCCGTACACCTCGTGCTCCTCCTCGTCCATGCGGAGTCACCTAGTGCAG” was 8410 fluorescence intensity (a.u.).
For the sequence “GCAACCAGTACACCACATTAACTTAATTCACACCTAGCTTCGGAGTCACCTAGTGCAG”, the binding signal is 8100 fluorescence intensity (a.u.).
“TGTGTTTGAGGGGTGTGTATGTGTTGTGTTGTAGGTCAACCGGAGTCACCTAGTGCAG”: the binding signal was 9510 fluorescence intensity (a.u.).
The value for “TTTTATTCCATAATCTGGTTGGGATAATTGCTTTCTGCTGCGGAGTCACCTAGTGCAG” was 8130 fluorescence intensity (a.u.); that for “AGAAGGGATAAGATAGGGCGGGGAGGACGAGGTGCTGCTGCGGAGTCACCTAGTGCAG” was 8150 fluorescence intensity (a.u.); that for “ATGACTCTGTACTCTATTTCTAATATTTCTTATTTTTTTACGGAGTCACCTAGTGCAG” was 11600 fluorescence intensity (a.u.).
The value for “CCGTCTCCATCGCGCACTGCCCTGTCCCTCTCTCCTCCTCCGGAGTCACCTAGTGCAG” was 11500 fluorescence intensity (a.u.).
To “CAACCTGCTCCGCTCCTTGCGCTCTCCCAATCCCGCATCTCGGAGTCACCTAGTGCAG” belongs 8890 fluorescence intensity (a.u.); to “CAATCACTTATAAAATTTTTTAGCTAAACTGCACATACCTCGGAGTCACCTAGTGCAG”, 9220 fluorescence intensity (a.u.); to “ACACCATCCCCATCCTACGTCGTCGCCGCCGCCGAAGTCCCGGAGTCACCTAGTGCAG”, 10500 fluorescence intensity (a.u.).
Consider “CATGCACCGGGACAATCATGCTTTGGCTGTACTACCGCGGCGGAGTCACCTAGTGCAG”, for which the binding signal is 8060 fluorescence intensity (a.u.).
Consider “ACATGCTCAATGATAGATCTAATTAAGCTTTTCATTGATTCGGAGTCACCTAGTGCAG”, for which the binding signal was 8210 fluorescence intensity (a.u.).
“ATCGCACTCTATGCCTAATCGTTTTACCCTTTTCACCAAACGGAGTCACCTAGTGCAG”: the binding signal was 12200 fluorescence intensity (a.u.).
In the case of “CTTTTGTTTTTCTTTTTTTTACCTTTCCTTTCATCTCTTCCGGAGTCACCTAGTGCAG”, the binding signal is 10200 fluorescence intensity (a.u.).
Take “CTCCGTCTGCACGCCGCTCAATCTCCAGGTACATATCGATCGGAGTCACCTAGTGCAG”: the binding signal is 8670 fluorescence intensity (a.u.).
As to “GTCTTCCTCCACGCTTCTGCTTGCACTTATCTCTATGTCACGGAGTCACCTAGTGCAG”, the binding signal is 8780 fluorescence intensity (a.u.).
For the sequence “GCTAGTGGGTTGCAACTATTCATTCACAAAACGTTCATTGCGGAGTCACCTAGTGCAG”, the binding signal is 8290 fluorescence intensity (a.u.).
“TGCTCCTTTCCTCCTTGTGCTCTACCTGTGTTCACGGAAACGGAGTCACCTAGTGCAG”: the binding signal was 8200 fluorescence intensity (a.u.).
Regarding “CGGCTCCGGCCGCTAGCAGTTGCTTCTTTTTCCCACATTCCGGAGTCACCTAGTGCAG”, the binding signal was 10800 fluorescence intensity (a.u.).
